Reference: US20030144204A1, “Akt-based inducible survival switch” (Baylor College of Medicine, priority 2001, published 2003)
At least one compound was matched to its structure with a doubt left.

How the values were obtained:
Assay type in all cases: cell-based, human
Jurkat.iAkt cells = test: Apoptosis by propidium iodide staining and flow cytometry (hypodiploid cells); settings: LY294002 0.3-100 μM, 2% or 10% FBS, 9 hours
Procedure: Jurkat.iAkt were serum starved for 24 hours followed by pre-treatment with AP22783 in 0, 2 or 10% FBS for 40 min. After incubation with apoptosis-inducing stimuli for the periods indicated, cells were harvested and washed twice in ice-cold PBS and fixed in 70% ethanol. Cells were stained in 50 μg/ml propidium iodide and 100 μg/mlRNase A for 30 min at 37° C., and hypodiploid cells were quantitated by flow cytometry using a Beckman-Coulter EPICS XL-MCL.
Jurkat.iAkt cells were given various apoptotic insults in the presence or absence of rapalogs. Initially, the protective effects of iAkt were studied on staurosporine (STS)-induced apoptosis. […] Following serum starvation for 24 hours, Jurkat.iAkt cells were treated with 0, 0.5, or 2.0 μM STS with or without AP22783 (400 nM) for 6 hours in the absence of serum. Cell death was monitored using propidium iodide (PI) staining and flow cytometry (FCM) by quantitation of subdiploid cells.
The effects of AP22783 treatment following PI3K inhibition of Jurkat.iAkt cell were studied.
Finally, the anti-apoptotic effects of iAkt on protection from direct DNA damaging agents were examined. The anti-tumor agent, etoposide (VP16), is widely used as a chemotherapeutic drug that works by inhibiting DNA topoisomerase II, which can induce apoptosis in a variety of cell types. […]

endogenous Akt and iAkt = test: Akt phosphorylation in Jurkat.iAkt cells after kinase inhibitor pretreatment; settings: 30 min inhibitor pretreatment, then AP22783 30 min
Procedure: Jurkat.iAkt cells were serum starved for 24 hours followed by 30 min pretreatment with PI3K inhibitors, wortmannin and LY294002, or MEK inhibitor, PD98059, as a control. After inhibitor pretreatment, AP22783 was added to the media for another 30 min to mobilize membrane recruitment of iAkt.

NF-κB = test: NF-κB/SEAP reporter assay in Jurkat-TAg cells; settings: for NF-κB induction by iAkt: 40 min pretreatment, iAktb, 5 ng/ml PMA, AP22783

In the case of `O=c1cc(N2CCOCC2)oc2c(-c3ccccc3)cccc12` [LY294002], the cell death (Jurkat.iAkt cells) is reported as “increasing cell death in a very clear dose-dependent manner”, the “endogenous Akt phosphorylation at T308” value (endogenous Akt and iAkt) is reported as “significantly blocked” and the iAkt phosphorylation (endogenous Akt and iAkt) is reported as “much smaller, if any”. For the same compound, the “NF-κB activation by M-Akt plus PKC” value (NF-κB; LY294002 5 μM) was “did not prevent NF-κB activation” and the “NF-κB induction by iAkt” value (NF-κB; LY294002 5 μM and 50 μM) was “did not prevent NF-κB induction by iAkt”.

`COC[C@H]1OC(=O)c2coc3c2[C@@]1(C)C1=C(C3=O)[C@@H]2CCC(=O)[C@@]2(C)C[C@H]1OC(C)=O` [wortmannin] was tested, and the “endogenous Akt phosphorylation at T308” value (endogenous Akt and iAkt) was “significantly blocked”, the iAkt phosphorylation (endogenous Akt and iAkt) was “much smaller, if any” and the “NF-κB activation by M-Akt plus PKC” value (NF-κB; wortmannin 1 μM) was “did not prevent NF-κB activation”. The “NF-κB induction by iAkt” value (NF-κB; wortmannin 1 μM and 10 μM) was “did not prevent NF-κB induction by iAkt”.
